# Screen size: about 52,000 sequences; about 210 (0.4%) were called active.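 How the source made its calls: active means gene whose silencing raises cell survival under the drug, median off-target-corrected z-score across its silencing RNAs 2 or more; inactive means the rest.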 The list shows a part of the results.
# Assay: Resistance to Poly (ADP-Ribose) Polymerase inhibitor: Gene Identification via Genome-wide siRNA Screen
# Details: mouse BRCA2 R2336H ES cells, olaparib, CellTiter-Glo viability; active compounds read high
# In short: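 Mouse BRCA2 R2336H ES cells were reverse-transfected with siRNA (20 nM final), treated at 48 h with 500 nM olaparib, and read by CellTiter-Glo after 72 h. Scores: MAD-based z per siRNA, median per gene, seed off-target correction.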
row,Sequence,z-score
1,GGAAUUGUUAAGGACGUAGTT against Nupl2,inactive: 0.0322
2,GGAUGGCCUGGCCUUCAAUTT against Spnb1,inactive: -0.0598
3,GGAGAAGAACUAAAACUUATT against Bbs7,inactive: 1.8
4,GGGUGAUGAGAUCUGUCUGTT against Rent1,inactive: -1.04
5,GAAGCCUGGAAGGAAAACUTT against 1190017O12Rik,inactive: -0.267
6,CGAAUGCAACAUGUGAUGUTT against Gm83,inactive: 0.607
7,CCAUUGAGACUUUUGCCAATT against Gabbr1,inactive: 1.26
8,GGCCUGUAUUUAGAUGUAUTT against Pts,inactive: -1.96
9,GGAAGAGACAACAGCUAUCTT against B3galt4,inactive: 0.0714
10,GCGGAUUCGACAACAACAGTT against Mpp5,inactive: -0.0832
11,GGCUCUCAGCUGAAAGAAATT against 2810046M22Rik,inactive: -1.13
12,GGGUAUCAAUCUUAGGUUATT against LOC208158,inactive: 0.273
13,GGAAUUGUUUGUGCUGCUUTT against Mapk9,inactive: -2.34
14,GGAGAAAGGAUCUCAGUGUTT against C030011O14Rik,inactive: -2.69
15,CCAAGUCUACCUCUAUUUUTT against Pbsn,inactive: 0.471
16,GGCAAAUGUACUAAAAUGATT against Gpr34,inactive: -0.206
17,GCGAUGAAAUCUAAAGCCATT against Gpr146,inactive: 0.173
18,GCCACAUGGUUAAUAAGAGTT against Postn,inactive: -1.23
19,GGCUGAUGAGUAUAGUUUATT against Serpini2,inactive: -0.656
20,GCUCUGUGUUCUUAGGAGATT against Gaa,inactive: 1.09
21,GGUUCUCACCACUGUAGACTT against BC061928,inactive: 0.258
22,CCUACUAGAUUCCUACUUUTT against 2810429O05Rik,inactive: -1.19
23,CCCUAACUACUUCAUGAAUTT against Paip1,inactive: 0.365
24,GGGAAUAAUCUACAAGCCATT against 6530421E24Rik,inactive: -1.33
25,GCACCGGCUUUACUAAUGGTT against Ppnr,inactive: -1.09
26,GCGACUACAAGGAUACCCUTT against Krt2-6g,inactive: 1.07

row,Sequence,z-score
1,GAGAUGGAAAGUGGUUUCUTT against Olfr1226,inactive: -0.551
2,GGAAUAAGAUGAAAUACCCTT against Tmeff2,inactive: -0.49
3,GGAGGACAAUGAUUUCCGATT against Ndst3,inactive: 0.936
4,GGACCAGAAAUACAUUUUCTT against Arhgef2,inactive: -0.784
5,UCCUCCUGUCUUACGUACGTT against Gpr10,inactive: 1.45
6,CCCUGACUAUACGUAUAACTT against Selpl,inactive: -0.105
7,UGCGUUUUGUGCUUCCUGUTT against Olfr960,inactive: -0.259
8,GGAAUGCAUGCUAAUUCAGTT against Thsd1,inactive: 1.49
9,GCAACACAGAUCUUAGAAATT against 1810030O07Rik,inactive: -1.15
10,GGAAGCUGGUUCUACUGUCTT against Arl6ip1,inactive: -1.54
11,GGAGCAGAGAAACUUCUCGTT against Perq1,inactive: -0.477
12,GCCUAUGUACAGUUUGAAGTT against Grsf1,inactive: 0.44
13,GGUUAUACGCUUAGAUUUATT against Irx5,inactive: 1.4
14,GGUUGGAGCACUAGUGAGATT against D1Wsu40e,inactive: -1.05
15,GGGAAAAUCUCUGAAAGAATT against Bag1,inactive: -1.37
16,GGGAACAGCAUGAAGGAAGTT against Kb40,inactive: 0.497
17,GGAAACCUGAUUGCAUAUGTT against Nup37,inactive: -0.985
18,GGAAUGUGUUGAAAUAUGATT against P4ha3,inactive: 1.68
19,GCCACACAGAUACCAGAUATT against Wbscr27,inactive: -1.29
20,GGCCACAGAACCACAAAACTT against Pon3,inactive: 0.142
21,CGUGGCACUAGAGAUCAAUTT against Arid3c,inactive: -0.696
22,GAGGAAGUCCACGAAACUATT against Csh1,inactive: 0.1
23,CCACAUGUCACAUCUUUUCTT against Mrpl47,inactive: 0.956
24,GGAUACUCUGGAGAAGUGUTT against 2410043F08Rik,inactive: -0.993
25,GGUUGGCAAGUCCUUUUGUTT against BC028265,inactive: -0.717
26,GGGACUUGCACUCAUCUUCTT against 2010005O13Rik,inactive: 1.63

row,Sequence,z-score
1,GCUACACCGUAACAUGCUATT against C230075L19Rik,inactive: 0.776
2,GCGAAGAGAUGCUAACUAUTT against Dhx8,inactive: -2
3,CCUUCAAUUUCAGUUCAGATT against Olfr1388,inactive: 0.422
4,GGAGGAAUCGCACUAUAUUTT against D3Bwg0562e,inactive: 0.0289
5,GGCCUGAGAUGACAACGACTT against Rpl35,inactive: -2.94
6,GGUACGUGAGAGAAUUCUGTT against Trem2,inactive: 1.18
7,GUUGCAUUUCUCUCAAAGATT against Olfr799,inactive: -0.0403
8,CGUACUGGUACGGAAGCGUTT against Adck1,inactive: 1.67
9,CCUGUUGUACUGGAAGGACTT against Rtn2,inactive: 0.367
10,CCUGUCAUCACACACUAAUTT against Zbed4,inactive: 0.915
11,GGCUACGUGAAGGAACAGUTT against Rps10,inactive: -2.37
12,CCCAUCAUUCCUUUCUUACTT against Ndfip2,inactive: -0.21
13,AAAGUGCAGAAAAAGCUGATT against Speer4d,inactive: 0.745
14,GGGAAUUCAGGAACACUUUTT against Galk2,inactive: -1.36
15,CCCAUCAGACUUUGACCGUTT against Lbh,inactive: 0.987
16,GCUUGUUUACAUCGGACUUTT against LOC434881,inactive: -1.4
17,GGAUGACAUCACAAGCAUCTT against Il24,inactive: -0.0873
18,GGCACUGGCAGGAAAUUACTT against Alg6,inactive: 1.45
19,GCAUCAAAAACGAGCCCUUTT against Pscd1,inactive: -1.63
20,GGUGUUCGUUGUGUGUCUUTT against Abcc2,inactive: -0.694
21,CCAUUAAGAUCCGAAGUAUTT against C330018J07Rik,inactive: 0.42
22,CCUGUACUACUGAUUAUUATT against Tera,inactive: -1.21
23,GGCAGCCAACGGAUUAAACTT against Cacna2d1,inactive: 0.525
24,GGAAGAGGUGGAGUUUGUGTT against 2310026J01Rik,inactive: 0.684
25,CCAUUCUUUCCUAUGGCUATT against Olfr1415,inactive: 1.53
26,GCCGAAGACGGAGUAAGUATT against Epha4,inactive: -1.94

# Single values from the entries so far.
# z-score, GGAUGACAUCACAAGCAUCTT against Il24 is entered as inactive: -0.0873
# z-score, CGUACUGGUACGGAAGCGUTT against Adck1 is entered as inactive: 1.67
# z-score, CCAUUAAGAUCCGAAGUAUTT against C330018J07Rik is entered as inactive: 0.42
# z-score, GGGAAUUCAGGAACACUUUTT against Galk2 is entered as inactive: -1.36

# Next records follow:

row,Sequence,z-score
1,GGCCAGAUGACAUUUUAGGTT against Map3k9,inactive: 0.808
2,CGAUACCCAACUGUUGAAATT against 4932432K03Rik,inactive: -0.42
3,GGAUGUGGGCACAAAAACUTT against St6gal1,inactive: -0.126
4,GGAAAGAGUAAGAUUUUGATT against Dnahc11,inactive: 2.77
5,GGCAGUGAUUGACUUCCUATT against LOC212390,inactive: -1.1
6,ACUUCUCCAAGCUGAACCUTT against Ubie,inactive: -1.93
7,GCAAAAAUUGAAGUCAGUGTT against Serpine2,inactive: -0.657
8,GCCCAACAUCUGAACAUGCTT against Olfr738,inactive: 0.316
9,GCCCUACGAUACAGCUUCATT against Psmd7,inactive: -1.93
10,GUCCAUAAGCGUACAAUUCTT against Olfr410,inactive: -1.71
11,GGAGCUAAUAAACUGACCUTT against 2610528K11Rik,inactive: 0.547
12,GCGAGUUAUUUGGCUCCGATT against 2310026J01Rik,inactive: -0.997
13,GCUUCGUGAGCAGUAUCUATT against Mcpt6,inactive: -1.09
14,GGAGGGAGCAGAUUGAAACTT against 4933424N09Rik,inactive: 0.199
15,GGUGUUUUUAUGUGAACUUTT against 9330120H11Rik,inactive: -1.01
16,GGGAUUUGUUAUGUCUGUATT against Sfrs7,inactive: -2.16
17,GGAGCUCAGCAUUAUGUAGTT against 2610017G09Rik,inactive: -1.36
18,GGAUGAGAAUCUUCAGGUUTT against Mtmr3,inactive: 0.0945
19,CCAAGUAUUACGGAACAUCTT against 4921506M07Rik,inactive: -0.789
20,GGAACUUCGACUCUGAGAUTT against 0610039K22Rik,inactive: -0.17
21,GGCAGGAAACCAACAAAGATT against Bmp8b,inactive: -0.486
22,GCUUAGACACAUCAAGAGATT against 2310026E23Rik,inactive: 0.473
23,GGUGUUUAUCCUAAUAAACTT against Sox12,inactive: 2.38
24,GGUUUUUUGGUACCAAGUGTT against Unc93b,inactive: -1.93
25,GGAGACUUAGAAAAAGACUTT against Olfr1426,inactive: 0.919
26,GCAGACCGGAUACUGAACATT against Ddx47,inactive: -2.97

# Reference: PubChem BioAssay AID1347423 (Functional Genomics Laboratory (NCATS/FGL), 2020)
